Measured values published in patent publication US20140170239A1 (VRIJE UNIVERSITEIT BRUSSEL, published 2014).
No constants are given. Whether binding was seen depends on the method and setting. Some results given as binding are weak or reduced against the parent protein; the word gives no strength. Where no end group is shown, it is not given here.

T1: biotinylated p53β peptide (human, also: biotinylated, site not given here)
T1 construct: also called biotinylated p53-aggregating peptide
T1 peptide: ILTIITL

B1: ANXA6_HUMAN peptide ILDIITS (peptide)
peptide: ILDIITS
notes: spot-synthesized on membrane; also called annexin-6 peptide fragment; position Nr 29
B2: METH_HUMAN peptide ILTIGTG (peptide)
peptide: ILTIGTG
notes: spot-synthesized on membrane; also called methionine synthase (METH) segment; position Nr 38
B3: P73_HUMAN peptide ILIIITL (peptide)
peptide: ILIIITL
notes: spot-synthesized on membrane; also called p73β; position Nr 35
B4: P53_HUMAN peptide ILTIITL (immobilised spot) (peptide)
peptide: ILTIITL
notes: spot-synthesized on membrane; also called p53β; position Nr 1
B5: P63_HUMAN peptide ILIIVTL (peptide)
peptide: ILIIVTL
notes: spot-synthesized on membrane; also called p63β; position Nr 16
B6: CPNE2_HUMAN peptide ILLIITD (peptide)
peptide: ILLIITD
notes: spot-synthesized on membrane; also called Copine-2 (CPNE2) segment; position Nr 42
B7: CGRF1_HUMAN peptide ITTGITL (peptide)
peptide: ITTGITL
notes: spot-synthesized on membrane; also called CGRF1 segment; position Nr 30

Target: T1, biotinylated p53β peptide
Experiment: peptide-binding assay: peptide spots on membrane, biotinylated p53β peptide, streptavidin-HRP

| binding | Binder |
| --- | --- |
| binds | B1 |
| binds | B2 |
| binds | B3 |
| binds | B4 |
| binds | B5 |
| binds | B6 |
| binds | B7 |
